Test results from article PMC9522936, “Regain flood adaptation in rice through a 14-3-3 protein OsGF14h” (Nature Communications, 2022).

Tests used:
[1] = molecular target: T1, GST-OsHOX3 (rice) (UniProt Q0JKX1); test: pull-down; GST-OsHOX3 or GST-OsVP1 as bait on GST beads, equal quantities of recombinant proteins in GST pull-down buffer at 4 °C overnight, His-OsGF14h detected by anti-His; both purified
T1 sequence: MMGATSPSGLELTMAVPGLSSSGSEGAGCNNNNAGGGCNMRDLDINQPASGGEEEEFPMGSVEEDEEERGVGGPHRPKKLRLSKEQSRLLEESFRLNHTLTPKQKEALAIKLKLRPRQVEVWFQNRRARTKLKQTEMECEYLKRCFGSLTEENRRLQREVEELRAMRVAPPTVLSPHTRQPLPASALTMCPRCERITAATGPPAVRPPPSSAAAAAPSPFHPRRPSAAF

[2] = molecular target: T2, GST-OsVP1 (rice) (UniProt P37398); test: as above
T2 sequence: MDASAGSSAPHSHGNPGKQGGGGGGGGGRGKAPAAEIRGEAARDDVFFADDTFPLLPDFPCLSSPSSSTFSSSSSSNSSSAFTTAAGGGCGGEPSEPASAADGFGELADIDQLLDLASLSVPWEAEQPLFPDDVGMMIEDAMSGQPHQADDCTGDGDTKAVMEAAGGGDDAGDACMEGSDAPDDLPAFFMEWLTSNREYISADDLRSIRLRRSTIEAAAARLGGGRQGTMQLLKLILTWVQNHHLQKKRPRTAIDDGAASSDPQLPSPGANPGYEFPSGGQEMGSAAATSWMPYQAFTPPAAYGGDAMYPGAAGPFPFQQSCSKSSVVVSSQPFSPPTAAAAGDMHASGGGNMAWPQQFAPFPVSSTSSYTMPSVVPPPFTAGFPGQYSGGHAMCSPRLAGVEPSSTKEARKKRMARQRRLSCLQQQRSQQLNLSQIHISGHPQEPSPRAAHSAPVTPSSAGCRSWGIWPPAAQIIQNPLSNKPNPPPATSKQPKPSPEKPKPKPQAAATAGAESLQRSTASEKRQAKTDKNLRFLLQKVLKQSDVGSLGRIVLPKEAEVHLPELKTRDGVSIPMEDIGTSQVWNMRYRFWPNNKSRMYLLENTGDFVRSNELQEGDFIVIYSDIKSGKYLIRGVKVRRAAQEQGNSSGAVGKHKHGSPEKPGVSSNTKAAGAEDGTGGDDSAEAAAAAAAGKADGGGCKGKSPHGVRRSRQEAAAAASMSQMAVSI

[3] = molecular target: OsGF14h^WR04-6-GFP (pBWA(V)HS-OsGF14h-GFP) (weedy rice (Oryza sativa f. spontanea) WR04-6); test: co-IP; OsGF14h-GFP and 3×FLAG-HOX3 or 3×FLAG-VP1 co-expressed in N. benthamiana leaves; GFP-Trap agarose 2 h; washes in 10 mM Tris-HCl pH 8.0, 150 mM NaCl, 0.5 mM EDTA, 2 mM DTT, 0.1% NP-40; anti-FLAG blot
[4] = molecular target: OsGF14h^WR04-6 (pGBKT7-OsGF14h, two-hybrid bait) (weedy rice (Oryza sativa f. spontanea) WR04-6); test: two-hybrid; pairwise, pGBKT7-OsGF14h with pGADT7-OsHOX3 or pGADT7-VP1 in strain Y2H Gold; growth on SD/-Leu-Trp-His-Ade
[5] = molecular target: OsGF14h^WR04-6 fused with nLuc (pCAMBIA1300-nLuc) (weedy rice (Oryza sativa f. spontanea) WR04-6); test: split reporter; luciferase complementation imaging, nLuc and cLuc fusions co-expressed in N. benthamiana leaves, 23 °C for 48 h, 1 mM luciferin

Molecule: His-OsGF14h^WR04-6
- binding [1]: binds
- binding [2]: binds

B1: 3×FLAG-HOX3 (pBWA(V)HS-3×FLAG-HOX3) (protein, UniProt Q0JKX1 1-229)
chain: T1 sequence
- binding [3]: binds

B2: 3×FLAG-VP1 (pBWA(V)HS-3×FLAG-VP1) (protein, UniProt P37398 1-727)
chain: T2 sequence
- binding [3]: binds

B3: OsHOX3 (pGADT7-OsHOX3, two-hybrid prey) (protein, UniProt Q0JKX1 1-229)
chain: T1 sequence
- binding [4]: binds

B4: OsVP1 (pGADT7-VP1, two-hybrid prey) (protein, UniProt P37398 1-727)
chain: T2 sequence
- binding [4]: binds

B5: OsHOX3 fused with cLuc (pCAMBIA1300-cLuc) (protein, UniProt Q0JKX1 1-229)
chain: T1 sequence
- binding [5]: binds

B6: OsVP1 fused with cLuc (pCAMBIA1300-cLuc) (protein, UniProt P37398 1-727)
chain: T2 sequence
- binding [5]: binds

These are yes or no findings as the source states them, for the method shown. Binding calls can cover weak binding; strength is not graded here. For some assays here: Where a sequence is shown, tags or fusion partners need not be part of it. For some assays here: Binding seen in cells or lysates may run through a third protein.
